Results are given in words; binding and its absence hold for the method and conditions named. Some entries that bind do so weakly or less than the wild type. Tags and fused reporters may be left off the sequences shown.
Columns and labels:
[1] = biological target: IRAP (55-82) bait: GAL4-DNA binding domain (GAL4-BD) fused to the polypeptide of amino acid residues 55 to 82 of insulin responsive aminopeptidase (IRAP), from pBAIT-2 (UniProt P04386); assay: yeast two-hybrid, beta-galactosidase activity
[2] = biological target: IRAP (55-82) bait: GAL4-DNA binding domain (GAL4-BD) fused to the polypeptide of amino acid residues 55 to 82 of insulin responsive aminopeptidase (IRAP), from pBAIT-2 (UniProt P04386); assay: yeast two-hybrid, HIS3 reporter growth test

binding [1]: binds
binding [2]: binds
B1: MD25 prey: GAL4 transcription-activating domain (GAL4-AD) fused to the part of human very-long chain acyl-CoA dehydrogenase (VLCAD) downstream from the 36th … (protein, not shown: large carriers)
chain: ARRPYAGGAAQLALDKSDSHPSDALTRKKPAKAESKSFAVGMFKGQLTTDQVFPYPSVLNEEQTQFLKELVEPVSRFFEEVNDPAKNDALEMVEETTWQGLKELGAFGLQVPSELGGVGLCNTQYARLVEIVGMHDLGVGITLGAHQSIGFKGILLFGTKAQKEKYLPKLASGETVAAFCLTEPSSGSDAASIRTSAVPSPCGKYYTLNGSKLWISNGGLADIFTVFAKTPVTDPATGAVKEKITAFVVERGFGGITHGPPEKKMGIKASNTAEVFFDGVRVPSENVLGEVGSGFKVAMHILNNGRFGMAAALAGTMRGIIAKAVDHATNRTQFGEKIHNFGLIQEKLARMVMLQYVTESMAYMVSANMDQGATDFQIEAAISKIFGSEAAWKVTDECIQIMGGMGFMKEPGVERVLRDLRIFRIFEGTNDILRLFVALQGCMDKGKELSGLGSALKNPFGNAGLLLGEAGKQLRRRAGLGSGLSLSGLVHPELSRSGELAVRALEQFATVVEAKLIKHKKGIVNEQFLLQRLADGAIDLYAMVVVLSRASRSLSEGHPTAQHEKMLCDTWCIEAAARIREGMAALQSDPWQQELYRNFKSISKALVERGGVVTSNPLGF

From patent US20040086510A1
